In PMC8766458, “Deciphering the mechanism of processive ssDNA digestion by the Dna2-RPA ensemble” (Nature Communications, 2022):
No constants are given. Whether binding was seen depends on the method and setting. Each block holds one molecule with its values, some of them ahead of it.

Chains of the proteins cited; added tags and fusions are not shown. Lines headed by an entry give the natural chain unless they say otherwise; changes in a name come on top.
UniProt P26754: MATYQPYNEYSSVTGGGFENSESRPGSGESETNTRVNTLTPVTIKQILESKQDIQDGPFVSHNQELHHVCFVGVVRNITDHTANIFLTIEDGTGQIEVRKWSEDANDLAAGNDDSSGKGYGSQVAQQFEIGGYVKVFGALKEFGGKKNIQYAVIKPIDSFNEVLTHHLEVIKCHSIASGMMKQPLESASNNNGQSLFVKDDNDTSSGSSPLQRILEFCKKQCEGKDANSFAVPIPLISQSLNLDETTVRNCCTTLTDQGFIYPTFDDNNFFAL
UniProt P26755: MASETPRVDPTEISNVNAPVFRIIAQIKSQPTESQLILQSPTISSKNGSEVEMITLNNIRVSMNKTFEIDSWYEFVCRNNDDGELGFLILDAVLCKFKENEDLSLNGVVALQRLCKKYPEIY

Columns and labels:
[1] = target: T1, dna2-D657A (nuclease-dead Dna2) (S. cerevisiae, UniProt P38859 1-1522, D657A); test: native gel or EMSA; ternary complex of dna2-D657A variants (20 nM), Rfa1 truncations or mutants (20 nM) and 5 nM dT(20) ssDNA; 150 mM KCl, 30 °C, 4% native gel; both purified
T1 construct: Dna2, Saccharomyces cerevisiae, nuclease-dead version; Purified as the other Dna2 variants; FLAG tag used for quantum-dot labelling in DNA Curtains; also called dna2-D657A mutant; source: over-expressed in yeast, purified (Ni-NTA, anti-FLAG-M2 resin)

[2] = target: RPA–∆N–GFP (yeast (S. cerevisiae)) (UniProt P22336+P26754+P26755); test: single-molecule DNA Curtains (TIRF microscopy); quantum-dot (anti-FLAG) labelled Dna2 variants (2 nM) flowed over ssDNA with a free 5′-end coated with RPA–GFP or RPA–∆N–GFP; 0.1 nM free RPA–GFP in the buffer, 50 mM NaCl, 20 mM Tris-HCl pH 7.5, 2 mM MgCl2, 30 °C; both purified
[3] = target: T2, dna2–∆501N–D657A (S. cerevisiae) (UniProt P38859); test: native gel or EMSA; ternary complex of dna2-D657A variants (20 nM), Rfa1 truncations or mutants (20 nM) and 5 nM dT(20) ssDNA; 150 mM KCl, 30 °C, 4% native gel; both purified
T2 sequence: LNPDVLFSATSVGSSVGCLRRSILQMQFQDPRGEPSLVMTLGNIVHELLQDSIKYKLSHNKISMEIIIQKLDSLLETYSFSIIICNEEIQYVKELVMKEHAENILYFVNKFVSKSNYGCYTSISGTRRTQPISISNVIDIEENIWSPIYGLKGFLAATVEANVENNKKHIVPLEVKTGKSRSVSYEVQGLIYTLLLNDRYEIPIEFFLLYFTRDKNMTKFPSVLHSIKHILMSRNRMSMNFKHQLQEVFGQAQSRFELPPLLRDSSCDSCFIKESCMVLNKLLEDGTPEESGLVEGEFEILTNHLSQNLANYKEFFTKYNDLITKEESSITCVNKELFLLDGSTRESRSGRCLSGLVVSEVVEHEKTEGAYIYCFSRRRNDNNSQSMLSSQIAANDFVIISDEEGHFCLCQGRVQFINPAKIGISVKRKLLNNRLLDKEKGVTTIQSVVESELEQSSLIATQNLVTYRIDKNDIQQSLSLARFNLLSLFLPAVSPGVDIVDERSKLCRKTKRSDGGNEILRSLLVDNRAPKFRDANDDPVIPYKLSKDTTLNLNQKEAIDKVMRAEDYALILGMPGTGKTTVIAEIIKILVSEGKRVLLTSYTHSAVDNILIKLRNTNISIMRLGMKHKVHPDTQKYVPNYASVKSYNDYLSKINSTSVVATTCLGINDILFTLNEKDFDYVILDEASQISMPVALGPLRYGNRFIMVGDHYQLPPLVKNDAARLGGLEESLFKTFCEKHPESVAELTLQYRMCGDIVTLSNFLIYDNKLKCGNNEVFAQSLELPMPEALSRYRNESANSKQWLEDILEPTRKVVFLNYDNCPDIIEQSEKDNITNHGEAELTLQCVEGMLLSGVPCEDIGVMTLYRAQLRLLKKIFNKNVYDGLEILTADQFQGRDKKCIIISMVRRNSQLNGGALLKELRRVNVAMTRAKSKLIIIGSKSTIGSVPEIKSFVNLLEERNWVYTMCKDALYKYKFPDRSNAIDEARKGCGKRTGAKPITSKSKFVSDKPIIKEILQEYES

binding [1]: no binding
Molecule: Rfa1-N (amino acid 1–180) (from UniProt P22336 1-180) (domain or fragment)

binding [1]: no binding
Molecule: Rfa1-N-DBD-A (amino acid 1-299) (from UniProt P22336 1-299) (domain or fragment)

binding [2]: no binding (tested: 2 nM Dna2)
B1: Dna2 (wild type, FLAG-His6-tagged) (enzyme, S. cerevisiae, UniProt P38859 1-1522, looked up)
chain: MPGTPQKNKRSASISVSPAKKTEEKEIIQNDSKAILSKQTKRKKKYAFAPINNLNGKNTKVSNASVLKSIAVSQVRNTSRTKDINKAVSKSVKQLPNSQVKPKREMSNLSRHHDFTQDEDGPMEEVIWKYSPLQRDMSDKTTSAAEYSDDYEDVQNPSSTPIVPNRLKTVLSFTNIQVPNADVNQLIQENGNEQVRPKPAEISTRESLRNIDDILDDIEGDLTIKPTITKFSDLPSSPIKAPNVEKKAEVNAEEVDKMDSTGDSNDGDDSLIDILTQKYVEKRKSESQITIQGNTNQKSGAQESCGKNDNTKSRGEIEDHENVDNQAKTGNAFYENEEDSNCQRIKKNEKIEYNSSDEFSDDSLIELLNETQTQVEPNTIEQDLDKVEKMVSDDLRIATDSTLSAYALRAKSGAPRDGVVRLVIVSLRSVELPKIGTQKILECIDGKGEQSSVVVRHPWVYLEFEVGDVIHIIEGKNIENKRLLSDDKNPKTQLANDNLLVLNPDVLFSATSVGSSVGCLRRSILQMQFQDPRGEPSLVMTLGNIVHELLQDSIKYKLSHNKISMEIIIQKLDSLLETYSFSIIICNEEIQYVKELVMKEHAENILYFVNKFVSKSNYGCYTSISGTRRTQPISISNVIDIEENIWSPIYGLKGFLDATVEANVENNKKHIVPLEVKTGKSRSVSYEVQGLIYTLLLNDRYEIPIEFFLLYFTRDKNMTKFPSVLHSIKHILMSRNRMSMNFKHQLQEVFGQAQSRFELPPLLRDSSCDSCFIKESCMVLNKLLEDGTPEESGLVEGEFEILTNHLSQNLANYKEFFTKYNDLITKEESSITCVNKELFLLDGSTRESRSGRCLSGLVVSEVVEHEKTEGAYIYCFSRRRNDNNSQSMLSSQIAANDFVIISDEEGHFCLCQGRVQFINPAKIGISVKRKLLNNRLLDKEKGVTTIQSVVESELEQSSLIATQNLVTYRIDKNDIQQSLSLARFNLLSLFLPAVSPGVDIVDERSKLCRKTKRSDGGNEILRSLLVDNRAPKFRDANDDPVIPYKLSKDTTLNLNQKEAIDKVMRAEDYALILGMPGTGKTTVIAEIIKILVSEGKRVLLTSYTHSAVDNILIKLRNTNISIMRLGMKHKVHPDTQKYVPNYASVKSYNDYLSKINSTSVVATTCLGINDILFTLNEKDFDYVILDEASQISMPVALGPLRYGNRFIMVGDHYQLPPLVKNDAARLGGLEESLFKTFCEKHPESVAELTLQYRMCGDIVTLSNFLIYDNKLKCGNNEVFAQSLELPMPEALSRYRNESANSKQWLEDILEPTRKVVFLNYDNCPDIIEQSEKDNITNHGEAELTLQCVEGMLLSGVPCEDIGVMTLYRAQLRLLKKIFNKNVYDGLEILTADQFQGRDKKCIIISMVRRNSQLNGGALLKELRRVNVAMTRAKSKLIIIGSKSTIGSVPEIKSFVNLLEERNWVYTMCKDALYKYKFPDRSNAIDEARKGCGKRTGAKPITSKSKFVSDKPIIKEILQEYES
notes: Dna2 nuclease-helicase, Saccharomyces cerevisiae, wild type; Wild-type protein; In DNA Curtains it was labelled with anti-FLAG quantum dots; in MST with the His-tag labelling kit RED-tris-NTA; also called wild-type Dna2; (His)6-tagged Dna2; source: over-expressed in yeast, purified (Ni-NTA, anti-FLAG-M2 resin)

binding [3]: no binding
B2: Rfa1-N-DBD-A/B (Rfa1–NAB, amino acid 1–435) (domain or fragment, yeast (S. cerevisiae), UniProt P22336 1-435, looked up)
chain: MSSVQLSRGDFHSIFTNKQRYDNPTGGVYQVYNTRKSDGANSNRKNLIMISDGIYHMKALLRNQAASKFQSMELQRGDIIRVIIAEPAIVRERKKYVLLVDDFELVQSRADMVNQTSTFLDNYFSEHPNETLKDEDITDSGNVANQTNASNAGVPDMLHSNSNLNANERKFANENPNSQKTRPIFAIEQLSPYQNVWTIKARVSYKGEIKTWHNQRGDGKLFNVNFLDTSGEIRATAFNDFATKFNEILQEGKVYYVSKAKLQPAKPQFTNLTHPYELNLDRDTVIEECFDESNVPKTHFNFIKLDAIQNQEVNSNVDVLGIIQTINPHFELTSRAGKKFDRRDITIVDDSGFSISVGLWNQQALDFNLPEGSVAAIKGVRVTDFGGKSLSMGFSSTLIPNPEIPEAYALKGWYDSKGRNANFITLKQEPGMGGQ
notes: Rfa1 of yeast RPA, residues 1-435 (N, DBD-A and DBD-B domains); The 6xHis tag can optionally be removed by TEV protease; also called NAB polypeptide; pHis–Rfa1 1–435; source: E. coli BL21 codon plus, purified (Ni-NTA, Superdex 200)
